Some of the results follow.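 The calls were made as follows: active = dose-dependent thermal stabilisation significant by F-test of dose-response against flat model at 10% FDR; inactive = not significant.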

Protein sequences, listed by entry. Tags and fused reporters are not part of them. Lines headed by an entry give the natural chain unless they say otherwise; changes in a name come on top.
UniProt P55283: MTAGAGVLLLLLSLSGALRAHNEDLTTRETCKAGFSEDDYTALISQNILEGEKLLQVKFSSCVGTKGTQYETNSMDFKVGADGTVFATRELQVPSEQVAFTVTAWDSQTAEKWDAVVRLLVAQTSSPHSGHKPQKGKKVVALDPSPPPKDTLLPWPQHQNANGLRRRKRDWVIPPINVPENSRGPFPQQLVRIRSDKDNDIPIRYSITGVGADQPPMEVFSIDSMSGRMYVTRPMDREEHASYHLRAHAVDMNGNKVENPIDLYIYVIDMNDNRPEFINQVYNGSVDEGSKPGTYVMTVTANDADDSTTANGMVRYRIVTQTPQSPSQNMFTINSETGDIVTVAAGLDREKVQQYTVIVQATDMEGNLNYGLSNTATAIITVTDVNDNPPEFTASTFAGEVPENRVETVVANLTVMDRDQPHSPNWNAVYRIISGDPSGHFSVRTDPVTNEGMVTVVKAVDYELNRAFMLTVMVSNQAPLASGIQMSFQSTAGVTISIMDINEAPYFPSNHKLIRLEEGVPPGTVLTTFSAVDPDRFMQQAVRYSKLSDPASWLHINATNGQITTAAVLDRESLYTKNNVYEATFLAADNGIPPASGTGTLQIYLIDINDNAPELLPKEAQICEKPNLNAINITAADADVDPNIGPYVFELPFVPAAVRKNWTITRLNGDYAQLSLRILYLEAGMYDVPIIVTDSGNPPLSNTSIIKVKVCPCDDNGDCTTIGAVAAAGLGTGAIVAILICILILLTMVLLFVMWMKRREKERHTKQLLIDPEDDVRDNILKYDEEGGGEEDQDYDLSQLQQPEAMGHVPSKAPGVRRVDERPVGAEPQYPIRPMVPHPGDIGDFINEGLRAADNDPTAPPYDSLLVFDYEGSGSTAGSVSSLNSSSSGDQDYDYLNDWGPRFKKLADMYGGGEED
UniProt Q7Z7K0: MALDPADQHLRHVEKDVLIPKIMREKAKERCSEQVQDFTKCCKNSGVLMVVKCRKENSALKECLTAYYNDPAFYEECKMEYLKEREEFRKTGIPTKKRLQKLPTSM
UniProt O75419: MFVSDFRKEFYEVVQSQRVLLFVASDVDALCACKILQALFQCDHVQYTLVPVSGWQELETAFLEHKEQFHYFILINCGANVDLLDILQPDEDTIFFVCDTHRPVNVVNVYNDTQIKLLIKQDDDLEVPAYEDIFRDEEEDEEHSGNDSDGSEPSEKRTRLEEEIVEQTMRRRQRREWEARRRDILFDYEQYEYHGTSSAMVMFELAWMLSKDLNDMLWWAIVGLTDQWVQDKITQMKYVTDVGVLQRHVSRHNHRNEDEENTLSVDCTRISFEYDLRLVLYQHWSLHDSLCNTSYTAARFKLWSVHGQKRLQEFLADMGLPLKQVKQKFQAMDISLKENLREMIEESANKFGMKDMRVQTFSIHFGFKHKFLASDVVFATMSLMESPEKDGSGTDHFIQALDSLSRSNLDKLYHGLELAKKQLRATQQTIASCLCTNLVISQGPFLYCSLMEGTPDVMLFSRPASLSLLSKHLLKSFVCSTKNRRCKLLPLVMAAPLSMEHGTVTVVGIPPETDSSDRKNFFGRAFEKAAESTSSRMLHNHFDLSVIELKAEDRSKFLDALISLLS
UniProt Q9P2M7: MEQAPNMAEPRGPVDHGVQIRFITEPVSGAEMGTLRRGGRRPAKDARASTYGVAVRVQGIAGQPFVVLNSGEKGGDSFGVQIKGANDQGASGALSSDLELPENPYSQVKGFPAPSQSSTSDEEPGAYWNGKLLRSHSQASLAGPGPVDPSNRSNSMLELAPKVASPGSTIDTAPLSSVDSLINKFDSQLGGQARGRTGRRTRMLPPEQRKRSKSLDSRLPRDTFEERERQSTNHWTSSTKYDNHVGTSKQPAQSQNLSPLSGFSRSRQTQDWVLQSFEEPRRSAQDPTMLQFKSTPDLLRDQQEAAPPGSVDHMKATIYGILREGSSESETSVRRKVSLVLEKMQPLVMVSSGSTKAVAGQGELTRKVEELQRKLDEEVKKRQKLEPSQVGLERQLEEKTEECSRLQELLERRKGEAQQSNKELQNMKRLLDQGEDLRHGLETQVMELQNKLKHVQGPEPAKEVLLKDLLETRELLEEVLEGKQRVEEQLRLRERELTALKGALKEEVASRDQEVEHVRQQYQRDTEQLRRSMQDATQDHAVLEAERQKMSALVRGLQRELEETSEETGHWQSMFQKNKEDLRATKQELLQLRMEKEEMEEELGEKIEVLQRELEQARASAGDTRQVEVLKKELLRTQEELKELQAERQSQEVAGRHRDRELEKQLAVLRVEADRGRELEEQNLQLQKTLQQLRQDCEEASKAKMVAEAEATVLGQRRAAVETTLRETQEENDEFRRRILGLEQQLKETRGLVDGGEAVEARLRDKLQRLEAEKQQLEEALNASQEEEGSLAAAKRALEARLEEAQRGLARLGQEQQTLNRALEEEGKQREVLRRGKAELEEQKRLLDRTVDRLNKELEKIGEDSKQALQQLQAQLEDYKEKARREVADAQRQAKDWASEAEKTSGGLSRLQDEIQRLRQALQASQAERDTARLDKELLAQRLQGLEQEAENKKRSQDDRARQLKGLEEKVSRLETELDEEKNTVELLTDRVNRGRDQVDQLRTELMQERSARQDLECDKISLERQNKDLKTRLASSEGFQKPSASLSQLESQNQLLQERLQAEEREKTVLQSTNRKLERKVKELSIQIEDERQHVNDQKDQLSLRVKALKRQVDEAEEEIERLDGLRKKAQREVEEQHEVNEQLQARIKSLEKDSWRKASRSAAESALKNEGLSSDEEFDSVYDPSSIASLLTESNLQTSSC
UniProt Q5JTJ3: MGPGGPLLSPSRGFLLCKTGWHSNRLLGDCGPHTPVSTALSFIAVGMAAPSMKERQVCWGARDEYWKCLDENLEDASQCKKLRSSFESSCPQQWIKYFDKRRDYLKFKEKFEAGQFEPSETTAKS
UniProt Q14790: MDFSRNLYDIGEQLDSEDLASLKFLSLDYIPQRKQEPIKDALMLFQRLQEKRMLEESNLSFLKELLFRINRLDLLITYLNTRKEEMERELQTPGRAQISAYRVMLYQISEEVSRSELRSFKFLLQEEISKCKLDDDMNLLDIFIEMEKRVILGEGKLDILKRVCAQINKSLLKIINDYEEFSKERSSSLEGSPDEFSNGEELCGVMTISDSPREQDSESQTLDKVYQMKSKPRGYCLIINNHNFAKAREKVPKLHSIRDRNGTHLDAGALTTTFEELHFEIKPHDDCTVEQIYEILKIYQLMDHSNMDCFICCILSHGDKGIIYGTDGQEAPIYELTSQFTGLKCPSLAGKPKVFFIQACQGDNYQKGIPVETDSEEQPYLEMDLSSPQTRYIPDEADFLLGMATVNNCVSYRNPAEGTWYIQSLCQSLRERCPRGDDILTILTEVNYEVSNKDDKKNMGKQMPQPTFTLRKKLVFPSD
UniProt Q9Y232: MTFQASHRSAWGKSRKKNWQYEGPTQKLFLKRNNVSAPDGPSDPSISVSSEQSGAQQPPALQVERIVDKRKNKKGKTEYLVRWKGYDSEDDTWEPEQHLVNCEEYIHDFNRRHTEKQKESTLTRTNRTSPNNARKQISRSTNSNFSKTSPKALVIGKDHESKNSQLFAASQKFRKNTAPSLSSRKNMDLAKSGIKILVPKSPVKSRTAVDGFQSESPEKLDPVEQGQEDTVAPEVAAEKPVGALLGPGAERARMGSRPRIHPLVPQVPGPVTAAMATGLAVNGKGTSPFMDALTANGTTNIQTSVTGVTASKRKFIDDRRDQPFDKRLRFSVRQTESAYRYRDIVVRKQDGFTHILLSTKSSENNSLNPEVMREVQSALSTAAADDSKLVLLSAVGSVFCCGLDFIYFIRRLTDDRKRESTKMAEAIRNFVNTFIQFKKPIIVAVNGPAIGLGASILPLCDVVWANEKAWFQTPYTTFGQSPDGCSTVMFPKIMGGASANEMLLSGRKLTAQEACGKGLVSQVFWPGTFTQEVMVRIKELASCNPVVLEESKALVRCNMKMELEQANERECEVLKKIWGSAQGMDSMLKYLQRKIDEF
UniProt Q9H9Q2: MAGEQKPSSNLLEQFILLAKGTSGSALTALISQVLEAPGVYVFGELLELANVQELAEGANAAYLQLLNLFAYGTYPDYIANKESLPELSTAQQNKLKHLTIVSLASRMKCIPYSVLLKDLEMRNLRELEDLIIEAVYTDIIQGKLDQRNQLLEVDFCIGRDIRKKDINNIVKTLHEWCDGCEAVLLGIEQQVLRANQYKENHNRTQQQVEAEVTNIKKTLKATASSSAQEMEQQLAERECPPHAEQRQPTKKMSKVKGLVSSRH
UniProt P23528, whole entry: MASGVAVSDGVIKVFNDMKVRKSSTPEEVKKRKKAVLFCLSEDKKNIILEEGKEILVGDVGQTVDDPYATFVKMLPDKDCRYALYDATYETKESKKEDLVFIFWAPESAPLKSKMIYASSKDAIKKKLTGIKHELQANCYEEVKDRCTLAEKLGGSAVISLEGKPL
UniProt Q7Z4G1, whole entry: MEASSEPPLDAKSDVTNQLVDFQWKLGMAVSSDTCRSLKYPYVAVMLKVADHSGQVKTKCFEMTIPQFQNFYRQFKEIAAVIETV
UniProt P21964: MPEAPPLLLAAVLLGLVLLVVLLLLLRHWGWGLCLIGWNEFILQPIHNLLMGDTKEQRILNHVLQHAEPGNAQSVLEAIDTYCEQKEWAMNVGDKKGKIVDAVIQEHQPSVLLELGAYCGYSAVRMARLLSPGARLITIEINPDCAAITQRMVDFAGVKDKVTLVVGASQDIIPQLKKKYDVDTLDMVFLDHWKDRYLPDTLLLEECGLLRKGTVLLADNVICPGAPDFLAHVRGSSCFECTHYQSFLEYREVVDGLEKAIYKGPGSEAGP
UniProt P52757: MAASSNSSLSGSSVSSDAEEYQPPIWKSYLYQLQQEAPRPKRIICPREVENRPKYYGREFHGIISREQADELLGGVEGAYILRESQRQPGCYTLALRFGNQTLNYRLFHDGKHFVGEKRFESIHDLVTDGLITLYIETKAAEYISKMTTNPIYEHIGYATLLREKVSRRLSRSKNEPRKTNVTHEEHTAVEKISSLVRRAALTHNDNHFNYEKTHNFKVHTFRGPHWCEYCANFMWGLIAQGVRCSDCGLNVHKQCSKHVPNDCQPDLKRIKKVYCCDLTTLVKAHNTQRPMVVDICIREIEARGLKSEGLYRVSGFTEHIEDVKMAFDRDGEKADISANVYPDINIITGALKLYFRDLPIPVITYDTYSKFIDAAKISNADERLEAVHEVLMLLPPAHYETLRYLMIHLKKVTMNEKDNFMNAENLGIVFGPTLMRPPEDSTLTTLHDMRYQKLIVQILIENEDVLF
UniProt Q16204: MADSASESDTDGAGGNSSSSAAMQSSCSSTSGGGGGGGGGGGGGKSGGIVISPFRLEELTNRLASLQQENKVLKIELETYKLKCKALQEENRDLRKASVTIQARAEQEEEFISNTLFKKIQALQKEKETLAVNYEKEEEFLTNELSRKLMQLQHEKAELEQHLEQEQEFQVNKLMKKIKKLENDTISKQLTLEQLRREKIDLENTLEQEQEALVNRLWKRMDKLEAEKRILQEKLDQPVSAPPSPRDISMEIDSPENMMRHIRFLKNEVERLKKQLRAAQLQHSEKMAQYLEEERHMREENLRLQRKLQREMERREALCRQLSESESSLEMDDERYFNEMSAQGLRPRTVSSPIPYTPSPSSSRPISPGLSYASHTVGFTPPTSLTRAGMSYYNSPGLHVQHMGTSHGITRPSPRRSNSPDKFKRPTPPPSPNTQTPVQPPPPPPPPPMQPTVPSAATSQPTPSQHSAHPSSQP
UniProt P30085: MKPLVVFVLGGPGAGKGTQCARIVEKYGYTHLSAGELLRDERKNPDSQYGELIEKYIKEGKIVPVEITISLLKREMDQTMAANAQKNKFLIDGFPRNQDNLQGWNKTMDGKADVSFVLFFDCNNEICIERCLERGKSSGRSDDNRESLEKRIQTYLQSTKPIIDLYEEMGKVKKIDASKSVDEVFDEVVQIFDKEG
UniProt O14757: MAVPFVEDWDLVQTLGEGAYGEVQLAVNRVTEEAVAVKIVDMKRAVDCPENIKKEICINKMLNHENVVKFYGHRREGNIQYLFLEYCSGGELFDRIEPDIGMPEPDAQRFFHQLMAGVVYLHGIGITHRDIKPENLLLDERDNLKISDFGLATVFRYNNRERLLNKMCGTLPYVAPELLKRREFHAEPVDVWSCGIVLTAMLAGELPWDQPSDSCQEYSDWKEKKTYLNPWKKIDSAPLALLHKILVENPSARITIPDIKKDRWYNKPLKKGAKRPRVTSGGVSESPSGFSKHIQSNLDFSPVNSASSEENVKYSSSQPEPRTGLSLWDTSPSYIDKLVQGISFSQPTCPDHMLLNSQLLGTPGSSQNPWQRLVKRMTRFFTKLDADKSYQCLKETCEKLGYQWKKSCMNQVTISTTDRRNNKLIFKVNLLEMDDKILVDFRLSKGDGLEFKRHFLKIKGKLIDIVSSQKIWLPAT
UniProt Q14019: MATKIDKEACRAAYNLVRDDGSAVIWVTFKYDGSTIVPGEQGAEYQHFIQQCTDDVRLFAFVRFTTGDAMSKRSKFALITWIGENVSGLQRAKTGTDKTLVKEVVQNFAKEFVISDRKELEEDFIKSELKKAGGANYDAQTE

Compound in the test: Nc1nc2c(ncn2[C@@H]2O[C@H](COP(=O)(O)OP(=O)(O)OP(=O)(O)O)[C@@H](O)[C@H]2O)c(=O)[nH]1
The test can be described thus: dose-dependent thermal stabilisation call (2D-TPP, DLPTP, 10% FDR) (binary (1 = stabilised)); higher = stabilised by the compound. The note with it: system: Jurkat gel-filtered lysate; concentration range 1-500 µM.
For CCNK (UniProt O75909), the “dose-dependent thermal stabilisation call” value is inactive: 0. As to CDH4 (UniProt P55283), the “dose-dependent thermal stabilisation call” value is inactive: 0. The same measure for CBX3 (UniProt Q13185): inactive: 0. On to CMC1 (UniProt Q7Z7K0), for which the “dose-dependent thermal stabilisation call” value is inactive: 0.

Take CDC45 (UniProt O75419): the “dose-dependent thermal stabilisation call” value was inactive: 0. On to CGN (UniProt Q9P2M7), for which the “dose-dependent thermal stabilisation call” value is inactive: 0.

On to COA6 (UniProt Q5JTJ3), for which the “dose-dependent thermal stabilisation call” value was inactive: 0. Consider CEP192 (UniProt Q8TEP8), for which the “dose-dependent thermal stabilisation call” value was inactive: 0. Under CCT3 (UniProt P49368) stands inactive: 0; under CDK2 (UniProt P24941), inactive: 0. Under CCDC117 (UniProt Q8IWD4) stands active: 1. The same measure for CASP8 (UniProt Q14790): inactive: 0.

CDYL (UniProt Q9Y232): the “dose-dependent thermal stabilisation call” value is inactive: 0. Under COPS7B (UniProt Q9H9Q2) stands inactive: 0. Under CFL1 (UniProt P23528) stands inactive: 0; under CDC25C (UniProt P30307), inactive: 0; under COMMD6 (UniProt Q7Z4G1), inactive: 0. CDC37 (UniProt Q16543): the “dose-dependent thermal stabilisation call” value was inactive: 0. Under CMTR1 (UniProt Q8N1G2) stands active: 1. As to COMT (UniProt P21964), the “dose-dependent thermal stabilisation call” value was active: 1.

In the case of CCDC58 (UniProt Q4VC31), the “dose-dependent thermal stabilisation call” value is inactive: 0. The same measure for CHN2 (UniProt P52757): inactive: 0; for CCDC6 (UniProt Q16204): inactive: 0; for CMPK1 (UniProt P30085): inactive: 0. The same measure for COPZ1 (UniProt P61923): inactive: 0; for CHEK1 (UniProt O14757): inactive: 0; for COTL1 (UniProt Q14019): inactive: 0.

The record behind these values is the supplement of paper PMC7666118.
